Numbering of substitutions follows the chain as printed. These are yes or no findings as the source states them, for the method shown. Some binding calls cover weakened binding; strength is not graded here.
B1: Antibody No. D6DD3D012 (HU1127-hVH1/hVL3) (antibody, human IgG1, kappa, V domains shown)
VH: QVQLQESGPGLVKPSQTLSLTCTVSGGSISSDSAWNWIRQHPGKGLEWIGYISYSGSTSYNPSLKSRVTISRDTSKNQFSLKLSSVTAADTAVYYCVRGLRFAYWGQGTLVTVSS
VL: DIQLTQSPSSLSASVGDRVTITCRASESVDSYVNSFLHWYQQKPGKAPKLLIYRASNLQSGVPSRFSGSGSRTDFTLTISSLQPEDVATYYCQQSNEDPYTFGQGTKLEIKR
B2: Antibody No. D6DD3D007 (HU1127-hVH1/hVL2) (antibody, human IgG1, kappa, V domains shown)
VH: B1 VH
VL: DIVLTQSPDSLAVSLGERATINCRASESVDSYVNSFLHWYQQKPGQPPKLLIYRASNLQSGVPDRFSGSGSRTDFTLTISSLQAEDVAVYYCQQSNEDPYTFGQGTKLEIKR
B3: Antibody No. D6DD3D002 (HU1127-hVH1/hVL1) (antibody, human IgG1, kappa, V domains shown)
VH: B1 VH
VL: EIVLTQSPATLSLSPGERATLSCRASESVDSYVNSFLHWYQQKPGQAPRLLIYRASNLQSGIPARFSGSGSRTDFTLTISSLEPEDVAVYYCQQSNEDPYTFGQGTKLEIKR
B4: Antibody No. MPDDAD003 (HU1127-hVH3/hVL3-3) (antibody, V domains shown)
VH: B1 VH with V2L, Q16E, H41P
VL: DIQLTQSPSSLSASVGDRVTITCRASESVDSYVTSFLHWYQQKPGKAPKLLIYRASNLQSGVPSRFSGSGSRTDFTLTISSLQPEDVATYYCQQSNEDPYTFGQGTKLEIK
B5: Antibody No. D6DD3D001 (HU1127-mVH/mVL) (antibody, human IgG1, kappa, V domains shown)
VH: DVQLQQSGPGLVKPSQSLSLTCTVTGYSITSDSAWNWIRQFPGNRLEWMGYISYSGSTSYNPSLKSRISITRDTSKNQFFLQLNSVTTEDTATYYCVRGLRFAYWGQGTLVTVSS
VL: DIVLTQSPASLAVSLGQRATISCRASESVDSYVNSFLHWYQQKPGQPPKLLIYRASNLQSGIPARFSGSGSRTDFTLTINPVEADDVATYYCQQSNEDPYTFGGGTKLEIKR

By UniProt entry, the sequences of proteins in these tests, tags left out. Residues count along the entry.
UniProt P08571, residues 20-352: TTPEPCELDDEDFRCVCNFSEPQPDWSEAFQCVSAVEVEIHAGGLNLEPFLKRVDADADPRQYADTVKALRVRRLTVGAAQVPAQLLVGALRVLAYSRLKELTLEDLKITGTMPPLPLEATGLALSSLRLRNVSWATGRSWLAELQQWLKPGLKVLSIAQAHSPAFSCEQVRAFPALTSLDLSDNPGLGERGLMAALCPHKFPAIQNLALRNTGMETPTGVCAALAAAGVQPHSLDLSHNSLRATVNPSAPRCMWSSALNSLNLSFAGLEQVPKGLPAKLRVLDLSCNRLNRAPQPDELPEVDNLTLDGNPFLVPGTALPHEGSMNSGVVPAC

These binders were tested against Recombinant Human CD14/His Protein (B294801) (human) (UniProt P08571) (assay: SPR (Biacore 8K)).

binding, binds:
B1
B2
B3
B4

These binders were tested against Recombinant Human CD14/His Protein (B294801) (human) (UniProt P08571) (assay: SPR (Biacore platform)).

binding, binds:
B4

What follows are binders tested against Recombinant Human CD14/His Protein (B294801) (human) (UniProt P08571) (assay: SPR (Biacore 8K), antibody captured on Protein A chip, CD14-His as analyte at 0.78125-25 nM).

binding, binds:
B1
B2
B3
B5

Reference: patent US20250011456A1, “ANTIBODIES AGAINST CD14 AND USES THEREOF” (Villanelle Life Science Inc, priority 2023, published 2025)
